Results are given in words; binding and its absence hold for the method and conditions named. In cells and extracts the contact can be indirect. Some results given as binding are weak or reduced against the parent protein; the word gives no strength.
Experiments:
[1] = biological target: HBF (His6-biotinylation sequence-FLAG tag)-LYAR (human) (UniProt Q9NX58); assay: pull-down; HBF-LYAR as bait; two-step pulldown by His6 and FLAG tags from nuclear extract of Dox-treated HBF-LYAR-TO cells, immunoblotting of associated proteins; also after siRNA knockdown (72 h) of treacle, UBF, SPT5, BRD2 or BRD4; T-REx 293 cells as control
[2] = biological target: HBF-BRD2 (human) (UniProt P25440); assay: co-IP; HBF-BRD2 or FLAG-BRD4 as bait; nuclear extracts of HBF-BRD2-TO or FLAG-BRD4-TO cells treated with Dox for 24 h, two-step immunoprecipitation with anti-His6 and anti-FLAG; immunoblotting; T-REx 293 cells as control

Sequences of proteins named here, by UniProt entry; tags and fusion partners are left off.
UniProt P25440: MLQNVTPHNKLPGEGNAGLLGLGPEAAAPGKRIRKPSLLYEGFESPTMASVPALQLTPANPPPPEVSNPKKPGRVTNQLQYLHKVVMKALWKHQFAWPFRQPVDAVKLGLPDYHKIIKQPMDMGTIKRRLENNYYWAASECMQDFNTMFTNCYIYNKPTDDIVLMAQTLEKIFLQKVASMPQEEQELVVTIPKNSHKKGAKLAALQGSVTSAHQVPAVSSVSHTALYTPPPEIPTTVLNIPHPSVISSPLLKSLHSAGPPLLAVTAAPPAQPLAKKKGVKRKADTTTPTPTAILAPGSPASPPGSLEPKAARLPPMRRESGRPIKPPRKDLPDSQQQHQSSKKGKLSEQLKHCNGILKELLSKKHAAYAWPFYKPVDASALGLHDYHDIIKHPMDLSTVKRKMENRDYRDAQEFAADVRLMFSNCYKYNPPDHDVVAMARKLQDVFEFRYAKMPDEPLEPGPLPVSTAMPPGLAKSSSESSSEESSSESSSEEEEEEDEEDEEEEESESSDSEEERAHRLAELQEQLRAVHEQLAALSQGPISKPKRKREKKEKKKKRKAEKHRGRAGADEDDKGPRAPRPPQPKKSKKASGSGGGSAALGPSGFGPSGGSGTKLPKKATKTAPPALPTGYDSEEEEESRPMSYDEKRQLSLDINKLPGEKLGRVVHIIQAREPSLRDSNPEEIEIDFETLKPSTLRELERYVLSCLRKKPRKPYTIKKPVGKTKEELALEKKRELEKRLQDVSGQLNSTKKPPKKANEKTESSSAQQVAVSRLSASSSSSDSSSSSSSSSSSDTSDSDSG

Row | binding [1] | binding [2] | Binder
1 | binds | – | Treacle protein (protein, UniProt Q13428 1-1488) MAEARKRRELLPLIYHHLLRAGYVRAAREVKEQSGQKCFLAQPVTLLDIYTHWQQTSELGRKRKAEEDAALQAKKTRVSDPISTSESSEEEEEAEAETAKATPRLASTNSSVLGADLPSSMKEKAKAETEKAGKTGNSMPHPATGKTVANLLSGKSPRKSAEPSANTTLVSETEEEGSVPAFGAAAKPGMVSAGQADSSSEDTSSSSDETDVEGKPSVKPAQVKASSVSTKESPARKAAPAPGKVGDVTPQVKGGALPPAKRAKKPEEESESSEEGSESEEEAPAGTRSQVKASEKILQVRAASAPAKGTPGKGATPAPPGKAGAVASQTKAGKPEEDSESSSEESSDSEEETPAAKALLQAKASGKTSQVGAASAPAKESPRKGAAPAPPGKTGPAVAKAQAGKREEDSQSSSEESDSEEEAPAQAKPSGKAPQVRAASAPAKESPRKGAAPAPPRKTGPAAAQVQVGKQEEDSRSSSEESDSDREALAAMNAAQVKPLGKSPQVKPASTMGMGPLGKGAGPVPPGKVGPATPSAQVGKWEEDSESSSEESSDSSDGEVPTAVAPAQEKSLGNILQAKPTSSPAKGPPQKAGPVAVQVKAEKPMDNSESSEESSDSADSEEAPAAMTAAQAKPALKIPQTKACPKKTNTTASAKVAPVRVGTQAPRKAGTATSPAGSSPAVAGGTQRPAEDSSSSEESDSEEEKTGLAVTVGQAKSVGKGLQVKAASVPVKGSLGQGTAPVLPGKTGPTVTQVKAEKQEDSESSEEESDSEEAAASPAQVKTSVKKTQAKANPAAARAPSAKGTISAPGKVVTAAAQAKQRSPSKVKPPVRNPQNSTVLARGPASVPSVGKAVATAAQAQTGPEEDSGSSEEESDSEEEAETLAQVKPSGKTHQIRAALAPAKESPRKGAAPTPPGKTGPSAAQAGKQDDSGSSSEESDSDGEAPAAVTSAQVIKPPLIFVDPNRSPAGPAATPAQAQAASTPRKARASESTARSSSSESEDEDVIPATQCLTPGIRTNVVTMPTAHPRIAPKASMAGASSSKESSRISDGKKQEGPATQVSKKNPASLPLTQAALKVLAQKASEAQPPVARTQPSSGVDSAVGTLPATSPQSTSVQAKGTNKLRKPKLPEVQQATKAPESSDDSEDSSDSSSGSEEDGEGPQGAKSAHTLGPTPSRTETLVEETAAESSEDDVVAPSQSLLSGYMTPGLTPANSQASKATPKLDSSPSVSSTLAAKDDPDGKQEAKPQQAAGMLSPKTGGKEAASGTTPQKSRKPKKGAGNPQASTLALQSNITQCLLGQPWPLNEAQVQASVVKVLTELLEQERKKVVDTTKESSRKGWESRKRKLSGDQPAARTPRSKKKKKLGAGEGGEASVSPEKTSTTSKGKAKRDKASGDVKEKKGKGSLGSQGAKDEPEEELQKGMGTVEGGDQSNPKSKKEKKKSDKRKKDKEKKEKKKKAKKASTKDSESPSQKKKKKKKKTAEQTV
2 | – | binds | JADE3 (protein, UniProt Q92613 1-823) MKRHRPVSSSDSSDESPSTSFTSGSMYRIKSKIPNEHKKPAEVFRKDLISAMKLPDSHHINPDSYYLFADTWKEEWEKGVQVPASPDTVPQPSLRIIAEKVKDVLFIRPRKYIHCSSPDTTEPGYINIMELAASVCRYDLDDMDIFWLQELNEDLAEMGCGPVDENLMEKTVEVLERHCHENMNHAIETEEGLGIEYDEDVICDVCRSPDSEEGNDMVFCDKCNVCVHQACYGILKVPEGSWLCRSCVLGIYPQCVLCPKKGGALKTTKTGTKWAHVSCALWIPEVSIACPERMEPITKISHIPPSRWALVCNLCKLKTGACIQCSIKSCITAFHVTCAFEHGLEMKTILDEGDEVKFKSYCLKHSQNRQKLGEAEYPHHRAKEQSQAKSEKTSLRAQKLRELEEEFYSLVRVEDVAAELGMPTLAVDFIYNYWKLKRKSNFNKPLFPPKEDEENGLVQPKEESIHTRMRMFMHLRQDLERVRNLCYMISRREKLKLSHNKIQEQIFGLQVQLLNQEIDAGLPLTNALENSLFYPPPRITLKLKMPKSTPEDHRNSSTETDQQPHSPDSSSSVHSIRNMQVPQESLEMRTKSYPRYPLESKNNRLLASLSHSRSEAKESSPAWRTPSSECYHGQSLGKPLVLQAALHGQSSIGNGKSQPNSKFAKSNGLEGSWSGNVTQKDSSSEMFCDQEPVFSPHLVSQGSFRKSTVEHFSRSFKETTNRWVKNTEDLQCYVKPTKNMSPKEQFWGRQVLRRSAGRAPYQENDGYCPDLELSDSEAESDGNKEKVRVRKDSSDRENPPHDSRRDCHGKSKTHPLSHSSMQR

From article PMC6821171
